No constants are given. Whether binding was seen depends on the method and setting. Binding seen in cells or lysates may run through a third protein. These calls come from enrichment with a bait or labelling near it, and not all partners need be listed.
B1: Treacle protein (protein, UniProt Q13428 1-1488)
chain: MAEARKRRELLPLIYHHLLRAGYVRAAREVKEQSGQKCFLAQPVTLLDIYTHWQQTSELGRKRKAEEDAALQAKKTRVSDPISTSESSEEEEEAEAETAKATPRLASTNSSVLGADLPSSMKEKAKAETEKAGKTGNSMPHPATGKTVANLLSGKSPRKSAEPSANTTLVSETEEEGSVPAFGAAAKPGMVSAGQADSSSEDTSSSSDETDVEGKPSVKPAQVKASSVSTKESPARKAAPAPGKVGDVTPQVKGGALPPAKRAKKPEEESESSEEGSESEEEAPAGTRSQVKASEKILQVRAASAPAKGTPGKGATPAPPGKAGAVASQTKAGKPEEDSESSSEESSDSEEETPAAKALLQAKASGKTSQVGAASAPAKESPRKGAAPAPPGKTGPAVAKAQAGKREEDSQSSSEESDSEEEAPAQAKPSGKAPQVRAASAPAKESPRKGAAPAPPRKTGPAAAQVQVGKQEEDSRSSSEESDSDREALAAMNAAQVKPLGKSPQVKPASTMGMGPLGKGAGPVPPGKVGPATPSAQVGKWEEDSESSSEESSDSSDGEVPTAVAPAQEKSLGNILQAKPTSSPAKGPPQKAGPVAVQVKAEKPMDNSESSEESSDSADSEEAPAAMTAAQAKPALKIPQTKACPKKTNTTASAKVAPVRVGTQAPRKAGTATSPAGSSPAVAGGTQRPAEDSSSSEESDSEEEKTGLAVTVGQAKSVGKGLQVKAASVPVKGSLGQGTAPVLPGKTGPTVTQVKAEKQEDSESSEEESDSEEAAASPAQVKTSVKKTQAKANPAAARAPSAKGTISAPGKVVTAAAQAKQRSPSKVKPPVRNPQNSTVLARGPASVPSVGKAVATAAQAQTGPEEDSGSSEEESDSEEEAETLAQVKPSGKTHQIRAALAPAKESPRKGAAPTPPGKTGPSAAQAGKQDDSGSSSEESDSDGEAPAAVTSAQVIKPPLIFVDPNRSPAGPAATPAQAQAASTPRKARASESTARSSSSESEDEDVIPATQCLTPGIRTNVVTMPTAHPRIAPKASMAGASSSKESSRISDGKKQEGPATQVSKKNPASLPLTQAALKVLAQKASEAQPPVARTQPSSGVDSAVGTLPATSPQSTSVQAKGTNKLRKPKLPEVQQATKAPESSDDSEDSSDSSSGSEEDGEGPQGAKSAHTLGPTPSRTETLVEETAAESSEDDVVAPSQSLLSGYMTPGLTPANSQASKATPKLDSSPSVSSTLAAKDDPDGKQEAKPQQAAGMLSPKTGGKEAASGTTPQKSRKPKKGAGNPQASTLALQSNITQCLLGQPWPLNEAQVQASVVKVLTELLEQERKKVVDTTKESSRKGWESRKRKLSGDQPAARTPRSKKKKKLGAGEGGEASVSPEKTSTTSKGKAKRDKASGDVKEKKGKGSLGSQGAKDEPEEELQKGMGTVEGGDQSNPKSKKEKKKSDKRKKDKEKKEKKKKAKKASTKDSESPSQKKKKKKKKTAEQTV
B2: Testis-expressed sequence 10 protein (protein, UniProt Q9NXF1 1-929)
chain: MTKKRKRQHDFQKVKLKVGKKKPKLQNATPTNFKTKTIHLPEQLKEDGTLPTNNRKLNIKDLLSQMHHYNAGVKQSALLGLKDLLSQYPFIIDAHLSNILSEVTAVFTDKDANVRLAAVQLLQFLAPKIRAEQISPFFPLVSAHLSSAMTHITEGIQEDSLKVLDILLEQYPALITGRSSILLKNFVELISHQQLSKGLINRDRSQSWILSVNPNRRLTSQQWRLKVLVRLSKFLQALADGSSRLRESEGLQEQKENPHATSNSIFINWKEHANDQQHIQVYENGGSQPNVSSQFRLRYLVGGLSGVDEGLSSTENLKGFIEIIIPLLIECWVEAVPPQLATPVGNGIEREPLQVMQQVLNIISLLWKLSKQQDETHKLESWLRKNYLIDFKHHFMSRFPYVLKEITKHKRKEPNKSIKHCTVLSNNIDHLLLNLTLSDIMVSLANASTLQKDCSWIEMIRKFVTETLEDGSRLNSKQLNRLLGVSWRLMQIQPNREDTETLIKAVYTLYQQRGLILPVRTLLLKFFSKIYQTEELRSCRFRYRSKVLSRWLAGLPLQLAHLGSRNPELSTQLIDIIHTAAARANKELLKSLQATALRIYDPQEGAVVVLPADSQQRLVQLVYFLPSLPADLLSRLSRCCIMGRLSSSLAAMLIGILHMRSSFSGWKYSAKDWLMSDVDYFSFLFSTLTGFSKEELTWLQSLRGVPHVIQTQLSPVLLYLTDLDQFLHHWDVTEAVFHSLLVIPARSQNFDILQSAISKHLVGLTVIPDSTAGCVFGVICKLLDHTCVVSETLLPFLASCCYSLLYFLLTIEKGEAEHLRKRDKLWGVCVSILALLPRVLRLMLQSLRVNRVGPEELPVVGQLLRLLLQHAPLRTHMLTNAILVQQIIKNITTLKSGSVQEQWLTDLHYCFNVYITGHPQGPSALATVY
B3: Splicing factor, arginine/serine-rich 7 (protein, UniProt Q16629 1-238)
chain: MSRYGRYGGETKVYVGNLGTGAGKGELERAFSYYGPLRTVWIARNPPGFAFVEFEDPRDAEDAVRGLDGKVICGSRVRVELSTGMPRRSRFDRPPARRPFDPNDRCYECGEKGHYAYDCHRYSRRRRSRSRSRSHSRSRGRRYSRSRSRSRGRRSRSASPRRSRSISLRRSRSASLRRSRSGSIKGSRYFQSPSRSRSRSRSISRPRSSRSKSRSPSPKRSRSPSGSPRRSASPERMD
B4: Lamina-associated polypeptide 2, isoform alpha (protein, UniProt P42166 1-694)
chain: MPEFLEDPSVLTKDKLKSELVANNVTLPAGEQRKDVYVQLYLQHLTARNRPPLPAGTNSKGPPDFSSDEEREPTPVLGSGAAAAGRSRAAVGRKATKKTDKPRQEDKDDLDVTELTNEDLLDQLVKYGVNPGPIVGTTRKLYEKKLLKLREQGTESRSSTPLPTISSSAENTRQNGSNDSDRYSDNEEGKKKEHKKVKSTRDIVPFSELGTTPSGGGFFQGISFPEISTRPPLGSTELQAAKKVHTSKGDLPREPLVATNLPGRGQLQKLASERNLFISCKSSHDRCLEKSSSSSSQPEHSAMLVSTAASPSLIKETTTGYYKDIVENICGREKSGIQPLCPERSHISDQSPLSSKRKALEESESSQLISPPLAQAIRDYVNSLLVQGGVGSLPGTSNSMPPLDVENIQKRIDQSKFQETEFLSPPRKVPRLSEKSVEERDSGSFVAFQNIPGSELMSSFAKTVVSHSLTTLGLEVAKQSQHDKIDASELSFPFHESILKVIEEEWQQVDRQLPSLACKYPVSSREATQILSVPKVDDEILGFISEATPLGGIQAASTESCNQQLDLALCRAYEAAASALQIATHTAFVAKAMQADISQAAQILSSDPSRTHQALGILSKTYDAASYICEAAFDEVKMAAHTMGNATVGRRYLWLKDCKINLASKNKLASTPFKGGTLFGGEVCKVIKKRGNKH
B5: Serine/arginine repetitive matrix protein 1 (protein, UniProt Q8IYB3 1-904)
chain: MDAGFFRGTSAEQDNRFSNKQKKLLKQLKFAECLEKKVDMSKVNLEVIKPWITKRVTEILGFEDDVVIEFIFNQLEVKNPDSKMMQINLTGFLNGKNAREFMGELWPLLLSAQENIAGIPSAFLELKKEEIKQRQIEQEKLASMKKQDEDKDKRDKEEKESSREKRERSRSPRRRKSRSPSPRRRSSPVRRERKRSHSRSPRHRTKSRSPSPAPEKKEKTPELPEPSVKVKEPSVQEATSTSDILKVPKPEPIPEPKEPSPEKNSKKEKEKEKTRPRSRSRSKSRSRTRSRSPSHTRPRRRHRSRSRSYSPRRRPSPRRRPSPRRRTPPRRMPPPPRHRRSRSPVRRRRRSSASLSGSSSSSSSSRSRSPPKKPPKRTSSPPRKTRRLSPSASPPRRRHRPSPPATPPPKTRHSPTPQQSNRTRKSRVSVSPGRTSGKVTKHKGTEKRESPSPAPKPRKVELSESEEDKGGKMAAADSVQQRRQYRRQNQQSSSDSGSSSSSEDERPKRSHVKNGEVGRRRRHSPSRSASPSPRKRQKETSPRGRRRRSPSPPPTRRRRSPSPAPPPRRRRTPTPPPRRRTPSPPPRRRSPSPRRYSPPIQRRYSPSPPPKRRTASPPPPPKRRASPSPPPKRRVSHSPPPKQRSSPVTKRRSPSLSSKHRKGSSPSRSTREARSPQPNKRHSPSPRPRAPQTSSSPPPVRRGASSSPQRRQSPSPSTRPIRRVSRTPEPKKIKKAASPSPQSVRRVSSSRSVSGSPEPAAKKPPAPPSPVQSQSPSTNWSPAVPVKKAKSPTPSPSPPRNSDQEGGGKKKKKKKDKKHKKDKKHKKHKKHKKEKAVAAAAAAAVTPAAIAAATTTLAQEEPVAAPEPKKETESEAEDNLDDLEKHLREKALRSMRKAQVSPQS
B6: Surfeit locus protein 6 (protein, UniProt O75683 1-361)
chain: MASLLAKDAYLQSLAKKICSHSAPEQQARTRAGKTQGSETAGPPKKKRKKTQKKFRKREEKAAEHKAKSLGEKSPAASGARRPEAAKEEAAWASSSAGNPADGLATEPESVFALDVLRQRLHEKIQEARGQGSAKELSPAALEKRRRRKQERDRKKRKRKELRAKEKARKAEEATEAQEVVEATPEGACTEPREPPGLIFNKVEVSEDEPASKAQRRKEKRQRVKGNLTPLTGRNYRQLLERLQARQSRLDELRGQDEGKAQELEAKMKWTNLLYKAEGVKIRDDERLLQEALKRKEKRRAQRQRRWEKRTAGVVEKMQQRQDRRRQNLRRKKAARAERRLLRARKKGRILPQDLERAGLV
B7: Transducin beta-like protein 3 (protein, UniProt Q12788 1-808)
chain: MAETAAGVGRFKTNYAVERKIEPFYKGGKAQLDQTGQHLFCVCGTRVNILEVASGAVLRSLEQEDQEDITAFDLSPDNEVLVTASRALLLAQWAWQEGSVTRLWKAIHTAPVATMAFDPTSTLLATGGCDGAVRVWDIVRHYGTHHFRGSPGVVHLVAFHPDPTRLLLFSSATDAAIRVWSLQDRSCLAVLTAHYSAVTSLAFSADGHTMLSSGRDKICIIWDLQSCQATRTVPVFESVEAAVLLPEEPVSQLGVKSPGLYFLTAGDQGTLRVWEAASGQCVYTQAQPPGPGQELTHCTLAHTAGVVLTATADHNLLLYEARSLRLQKQFAGYSEEVLDVRFLGPEDSHVVVASNSPCLKVFELQTSACQILHGHTDIVLALDVFRKGWLFASCAKDQSVRIWRMNKAGQVMCVAQGSGHTHSVGTVCCSRLKESFLVTGSQDCTVKLWPLPKALLSKNTAPDNGPILLQAQTTQRCHDKDINSVAIAPNDKLLATGSQDRTAKLWALPQCQLLGVFSGHRRGLWCVQFSPMDQVLATASADGTIKLWALQDFSCLKTFEGHDASVLKVAFVSRGTQLLSSGSDGLVKLWTIKNNECVRTLDAHEDKVWGLHCSRLDDHALTGASDSRVILWKDVTEAEQAEEQARQEEQVVRQQELDNLLHEKRYLRALGLAISLDRPHTVLTVIQAIRRDPEACEKLEATMLRLRRDQKEALLRFCVTWNTNSRHCHEAQAVLGVLLRREAPEELLAYEGVRAALEALLPYTERHFQRLSRTLQAAAFLDFLWHNMKLPVPAAAPTPWETHKGALP
B8: ATP-dependent RNA helicase DDX18 (protein, UniProt Q9NVP1 1-670)
chain: MSHLPMKLLRKKIEKRNLKLRQRNLKFQGASNLTLSETQNGDVSEETMGSRKVKKSKQKPMNVGLSETQNGGMSQEAVGNIKVTKSPQKSTVLTNGEAAMQSSNSESKKKKKKKRKMVNDAEPDTKKAKTENKGKSEEESAETTKETENNVEKPDNDEDESEVPSLPLGLTGAFEDTSFASLCNLVNENTLKAIKEMGFTNMTEIQHKSIRPLLEGRDLLAAAKTGSGKTLAFLIPAVELIVKLRFMPRNGTGVLILSPTRELAMQTFGVLKELMTHHVHTYGLIMGGSNRSAEAQKLGNGINIIVATPGRLLDHMQNTPGFMYKNLQCLVIDEADRILDVGFEEELKQIIKLLPTRRQTMLFSATQTRKVEDLARISLKKEPLYVGVDDDKANATVDGLEQGYVVCPSEKRFLLLFTFLKKNRKKKLMVFFSSCMSVKYHYELLNYIDLPVLAIHGKQKQNKRTTTFFQFCNADSGTLLCTDVAARGLDIPEVDWIVQYDPPDDPKEYIHRVGRTARGLNGRGHALLILRPEELGFLRYLKQSKVPLSEFDFSWSKISDIQSQLEKLIEKNYFLHKSAQEAYKSYIRAYDSHSLKQIFNVNNLNLPQVALSFGFKVPPFVDLNVNSNEGKQKKRGGGGGFGYQKTKKVEKSKIFKHISKKSSDSRQFSH

By UniProt entry, the sequences of proteins in these tests, tags left out.
UniProt P03496: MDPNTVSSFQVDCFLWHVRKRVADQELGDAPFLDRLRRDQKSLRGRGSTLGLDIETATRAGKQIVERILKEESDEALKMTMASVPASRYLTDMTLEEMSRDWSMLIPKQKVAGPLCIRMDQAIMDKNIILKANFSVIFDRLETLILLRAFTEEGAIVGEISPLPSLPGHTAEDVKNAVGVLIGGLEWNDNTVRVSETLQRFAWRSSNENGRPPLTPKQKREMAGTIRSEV

Target: Influenza A virus non-structural protein 1 (NS1), strain A/Puerto Rico/8/1934(H1N1) (Influenza A virus A/Puerto Rico/8/1934(H1N1)) (UniProt P03496)
Assay: affinity purification with mass spectrometry

Row | Binder | binding
1 | B1 | binds
2 | B2 | binds
3 | B3 | binds
4 | B4 | binds
5 | B5 | binds
6 | B6 | binds
7 | B7 | binds
8 | B8 | binds
